The values that follow come from PubChem BioAssay AID1347421 (Sanford-Burnham Center for Chemical Genomics, 2020).

The chains behind the UniProt entries cited, without tags or fusion partners. Where a name states a change or a piece, a line headed by the entry shows the natural chain unless it says otherwise.
UniProt O00391: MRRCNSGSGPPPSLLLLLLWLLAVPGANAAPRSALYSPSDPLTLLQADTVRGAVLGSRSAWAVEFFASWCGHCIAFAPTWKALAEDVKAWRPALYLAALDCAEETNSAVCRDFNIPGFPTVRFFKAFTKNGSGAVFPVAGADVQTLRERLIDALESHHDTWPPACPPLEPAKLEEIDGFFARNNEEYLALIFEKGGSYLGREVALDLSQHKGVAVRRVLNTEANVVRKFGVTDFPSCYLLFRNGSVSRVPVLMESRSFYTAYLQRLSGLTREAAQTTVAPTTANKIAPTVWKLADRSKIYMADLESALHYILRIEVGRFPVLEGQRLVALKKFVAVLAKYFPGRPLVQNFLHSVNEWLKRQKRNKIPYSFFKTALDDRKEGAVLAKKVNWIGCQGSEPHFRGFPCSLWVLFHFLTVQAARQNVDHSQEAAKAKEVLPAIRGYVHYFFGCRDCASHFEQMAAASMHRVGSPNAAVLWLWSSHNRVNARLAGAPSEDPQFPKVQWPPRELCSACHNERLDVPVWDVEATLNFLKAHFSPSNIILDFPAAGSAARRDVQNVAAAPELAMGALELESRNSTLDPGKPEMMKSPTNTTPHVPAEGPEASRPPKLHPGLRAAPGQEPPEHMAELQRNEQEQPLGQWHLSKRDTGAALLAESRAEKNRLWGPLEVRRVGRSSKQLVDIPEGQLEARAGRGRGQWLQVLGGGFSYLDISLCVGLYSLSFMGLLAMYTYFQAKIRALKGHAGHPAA

Over roughly 1,500 compounds, “activity” has its median near 2; the lowest 2% begin near -18. The list shows a part of the results. The source made the active and inactive calls.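 How the source made its calls: active means inhibition of at least 40% at 10 µM; inconclusive means no clear call, values can overlap the other calls; inactive means the rest.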

The target in the experiment is Sulfhydryl oxidase 1 (Homo sapiens) (UniProt O00391). Kind of experiment: QSOX1 enzyme inhibitors, confirmation, biochemical, ROS-Glo luminescence, single concentration (AID 1347421).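 Further: 0% = DMSO wells with enzyme and 100% = wells lacking QSOX1 enzyme.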 The settings on record: recombinant hQSOX1, RNase A substrate, ROS-Glo H2O2 luminescence; at 10 µM.
Take `CCOC(=O)N1CCN(S(=O)(=O)c2ccc(NC(=O)N3CCCC3)cc2)CC1`: the activity is 5.9%.

Turning to `O=C(Cn1ncc(N2CCc3ccccc3C2)cc1=O)OCc1ccccc1`, the activity was 6.1%. With `Cc1nc(CC(=O)N2CCc3onc(-c4ccc(Cl)cc4)c3C2)cs1` the figure was 5%; with `C=CCc1ccc(OCCn2ccnc2)c(OC)c1`, inactive: -1.4%.

For `Fc1cccc(C2(CNc3ccnn3Cc3cccnc3)CCOC2)c1` (configuration not stated), the activity was determined as 4.3%.

Regarding `COc1ccc(-c2[nH]ncc2CNC(Cn2ccnc2)C(C)(C)C)c(F)c1` (configuration not stated), the activity is 0.9%. With `O=C(CCCn1nnnc1CN1CCOCC1)NCCCN1CCc2ccccc21` the figure was 5.8%; with `Cc1ccc(C(=O)N2CCC3(CCCN(Cc4ccc(F)c(F)c4)C3=O)C2)cn1` (configuration not stated), 3.9%; with `O=C(CCC1CCN(C(=O)C2=CCCCC2)CC1)NCc1cccnc1`, 1%. On to `CCc1cc(CNCc2ccc(OCC(O)CN3CCOCC3)c(OC)c2)on1` (configuration not stated), for which the activity turned out to be 2.5%. Consider `Cc1cccc(N2CCC(NC(=O)C3CCC(=O)N(CCCN4CCOCC4)C3)CC2)c1` (configuration not stated), for which the activity amounted to 13.1%.

Consider `O=C(NCC(c1ccc(F)cc1)N1CCCC1)c1cn(CCN2CCOCC2)nn1` (configuration not stated), for which the activity was determined as 2.4%. As to `C#CCSc1nc2c(c(=O)[nH]1)C(c1cccc(F)c1)CC(=O)N2` (configuration not stated), the activity was inactive: -13.9%. With `Cc1ccc(-n2cc(CN3CCCC(C(N)=O)C3)c(-c3ccc(F)cc3)n2)cc1` (configuration not stated), the activity was determined as 10.7%.

Turning to `CCSCCn1ncc(N2CCNCC2)cc1=O`, the activity was 1.4%. Take `C=CCC(O)(CC=C)CNC(=O)C1CCC(=O)N(CCc2ccc(OC)cc2)C1` (configuration not stated): the activity came out at 3.6%.

For `CC1CC(=O)c2cn3c(nc2C1)nc1ccccc13` (configuration not stated), the activity was inactive: -2.3%. The figure for `O=C1CN(C(=O)c2cc3ccccc3o2)c2ccccc2N1` is inactive: -2.8%; for `CN(Cc1nccs1)C(=O)CC1C(=O)NCCN1Cc1cccc(Oc2ccccc2)c1` (configuration not stated) it is inactive: -0.7%; for `CCN(CC)C(=O)N1CCN(c2cccc(C)c2C)CC1` it is inactive: -2.4%. With `CCN(CC1CCCO1)C(=O)C1CCN(C2CCN(Cc3ccccc3C)CC2)CC1` (configuration not stated), the activity amounted to 9.1%. Regarding `O=C(Nc1ccccc1C(=O)NC1CC1)c1ccccc1Cl`, the activity was 11.7%.

In the case of `CN(C)CCCN(CC1CCN(C2Cc3ccccc3C2)CC1)C(=O)CN1CCOC1=O`, the activity was inactive: -2.6%. Turning to `COc1ccc(C(C)(C)NC(=O)C2CCC(=O)N(Cc3ccccc3F)C2)cc1OC` (configuration not stated), the activity is inactive: -0.6%. With `CCN(CC)C(=O)Cn1cc(C(=O)N2CCCCC2CCn2cccn2)nn1` (configuration not stated) the figure was inactive: -3.7%; with `CCC(C)c1n[nH]c2c1CN(C(=O)CC1CNCCO1)CC2` (configuration not stated), 0.3%; with `c1ccc(CCCC2CN(Cc3ccccn3)CCO2)cc1` (configuration not stated), 6.1%. As for `O=C1CCC(C(=O)N2CCCC(CCC(=O)N3CCN(Cc4ccccc4)CC3)C2)=NN1` (configuration not stated), the activity was determined as 4.6%. Turning to `CC(C)(C)C(=O)NCCc1nc2ccccc2[nH]1`, the activity is inactive: -10.7%. Turning to `O=c1cc(N2CCNCC2)cnn1Cc1c(Cl)cccc1Cl`, the activity came out at 1.1%. The figure for `O=C(CCc1cccnc1)N1CCc2onc(-c3ccc(Cl)cc3)c2C1` is 9.9%; for `CCOC(=O)C1(CCc2ccccc2)CCN(C(=O)c2ccncc2)CC1` it is 5%.

On to `COCC(=O)N1CCC(Oc2ccc(C(=O)NCCc3ccc(F)cc3)cc2)CC1`, for which the activity was inactive: -2.2%. With `O=C(c1csnn1)N1CCOC(CC2CCCCC2)C1` (configuration not stated) the figure was 2%; with `COc1ccc(NC2CCCN(C(=O)c3ccccc3-c3ncc[nH]3)C2)cc1` (configuration not stated), 2.6%. `Fc1cccc(C2(CNc3ccc(-n4ccnc4)cc3)CCOC2)c1` (configuration not stated): the activity came to 4%.

As for `Cc1noc(C)c1C(=O)N1CCOC(CC2CCCCC2)C1` (configuration not stated), the activity was inactive: -2%. The figure for `C=C(C)CNC(=O)C1CCC(=O)N(CCCc2ccccc2)C1` (configuration not stated) is inactive: -5.8%.

Consider `Brc1ccc(Cn2ccnc2)cc1`, for which the activity worked out at 1%.

In the case of `CCOC(=O)C1(CCOc2ccccc2)CCN(C)CC1`, the activity stood at 7.1%. Take `CC1CCN(Cc2nnnn2CCCC(=O)N(C)CCC(O)c2ccccc2)CC1` (configuration not stated): the activity is 7.2%. The figure for `O[C@@H]1CN(Cc2coc(-c3ccccc3)n2)CC[C@H]1N1CCCCCC1` is inactive: -3.5%. Take `O=C(NCc1ccncc1)c1ccc(C2CCCN2Cc2ccco2)s1` (configuration not stated): the activity is 5.4%. For `CCN1CCCC1CN(CC1CCN(CCOC)CC1)C(=O)Cn1cncn1` (configuration not stated), the activity worked out at 11.5%. Turning to `CCC(O)CNC(=O)c1coc(CN2CCN(C/C=C/c3ccccc3)CC2)n1` (configuration not stated), the activity was 1.5%.

In the case of `COc1ccc(CN2CCNC(=O)C2CC(=O)NCCSc2nccn2C)c(OC)c1` (configuration not stated), the activity turned out to be 7.5%.

Regarding `Cc1nc(CNC(=O)C2(N3CCCCC3)Cc3ccccc3C2)cs1`, the activity was found to be 6%. Take `CNC(=O)CSCc1ccc(F)cc1`: the activity was inactive: -11.4%. Consider `COc1ccc(Cl)cc1NC(=O)CCC1CCCN(C(=O)c2cnc[nH]2)C1` (configuration not stated), for which the activity turned out to be 1.3%. Regarding `CC(C)NC(=O)C1CCN(C2CCN(C3CCC3)CC2)CC1`, the activity was found to be 3.6%. With `O=C(c1cc(-c2cnn(CCO)c2)nc2cc(F)ccc12)N1CCSCC1` the figure was 2.9%. With `COCCNC(=O)CCC1CCN(S(=O)(=O)c2cc(C)sc2C)CC1` the figure was 14.3%; with `CCN1CCN(CC(O)COc2ccc(CNCCCSC)cc2OC)CC1` (configuration not stated), 7.8%.

For `CCN(CCO)Cc1cnc(S(=O)(=O)CCOC)n1Cc1ccccc1`, the activity is inactive: -2.8%.

Consider `CCN1CCCC1CN(CC1CCN(CCOC)CC1)C(=O)CCc1ccc(=O)[nH]n1` (configuration not stated), for which the activity was 6.9%.

For `COCc1cc(CNC2CCN(c3ccc(-n4cccn4)cc3)CC2)n[nH]1`, the activity was inactive: -2.6%. Regarding `CCN(CCO)C1CC(=O)N(c2ccccc2C)C1=O` (configuration not stated), the activity is 2.5%.

Regarding `COc1cccc(CN(C)Cc2nc(Cc3cccc(C(F)(F)F)c3)no2)c1`, the activity was 3.2%.

Take `O=C(NCC1CCCN(C(=O)CCCN2CCCC2=O)C1)c1ccccc1Cl` (configuration not stated): the activity was inactive: -1.5%. The figure for `C#CCN(Cc1ccco1)C(=O)CCc1nnc(Cc2ccc3c(c2)OCO3)o1` is 6.1%; for `CCNS(=O)(=O)c1cc(C)c(C)cc1Br` it is inactive: -4.8%. Consider `Cc1cc(Oc2ccccc2)nc(Oc2ccc(=O)n(-c3ccccc3)n2)n1`, for which the activity is inactive: -9.1%. As for `COc1ccc(CCN2CCCC(CN(C)C(=O)c3nonc3C)C2)cc1` (configuration not stated), the activity is 7.5%. Consider `Cc1nc(CCNC(=O)C2CCC(=O)N(Cc3ccccn3)C2)nc2c1CCC2` (configuration not stated), for which the activity was inactive: -2.5%. As for `COCCCNc1nc2nonc2nc1N(C)CCN1CCOCC1`, the activity was inactive: -1.4%. With `CN(CC(O)COc1ccccc1CNCCCO)C1CCCCC1` (configuration not stated), the activity was found to be 3.3%.

In the case of `CCCc1cc(CN(C)Cc2cnc(S(=O)(=O)CC3CC3)n2CCOC)[nH]n1`, the activity stood at 4.6%.

For `O=c1c(CN2CCCC(N3CCc4ccccc4C3)C2)coc2ccccc12` (configuration not stated), the activity came to 2.5%. Take `CCC(=O)N1CCN(c2ccc(NC(=O)c3cccs3)cc2Cl)CC1`: the activity is inactive: -11.7%. In the case of `COc1ccc(NC2CCCN(C(=O)CSc3ccccc3)C2)cc1` (configuration not stated), the activity was inactive: -0.9%. With `CCOC1(C(F)(F)F)NC(=O)N(c2ccc(OC)cc2)C1=O` (configuration not stated), the activity is inactive: -2.2%.

Turning to `Cc1ccc(NC(=O)CN2CCc3ccccc3C2)cc1`, the activity was inactive: -21.7%.

As for `COc1ccc(CCN(C)C2CCCN(CC(C)C)C2)cc1OC` (configuration not stated), the activity is 0.5%. `Fc1cccc(C2(CN3CCC(Oc4ncccn4)CC3)CCOC2)c1` (configuration not stated): the activity was inactive: -1.9%.

`CCC1=[C+]c2c(nc(C)nc2N2CCOCC2)S1`: the activity was inactive: -20.3%. Consider `Cc1[nH]ncc1C(=O)N1CCOC(CC2CCCCC2)C1` (configuration not stated), for which the activity came to 3.4%.

On to `C=CCC(O)(CC=C)CNC(=O)C1CCC(=O)N(Cc2ccccc2OC)C1` (configuration not stated), for which the activity was 0.6%. Turning to `COCCNC(=O)CCC1CCN(Cc2cn[nH]c2-c2cc(C)ccc2C)CC1`, the activity is inactive: -2.8%. As to `CCCNc1ccc(-c2nc(-c3ncccn3)no2)cc1`, the activity is active: 53%.

In the case of `NC(=O)C1(C(=O)N(Cc2cccnc2)CC2CCCN(C3CCCCC3)C2)CC1` (configuration not stated), the activity amounted to 3%. With `CCCC(=O)Nc1ccc(N2CCN(C(=O)c3ccco3)CC2)c(Cl)c1`, the activity is inactive: -4%.

Consider `C=CCNCc1ccc(OCC(O)CN(C)C2CCCCC2)c(OC)c1` (configuration not stated), for which the activity was 2.7%.

Take `OC(COc1ccccc1CNCCCCCN1CCOCC1)CN1CCSCC1` (configuration not stated): the activity was inactive: -1.3%. The figure for `CN(Cc1ccccc1)CC(O)COc1ccc(CNC2CCC(O)CC2)cc1` (configuration not stated) is 0.7%; for `O=C1CCCN1CCCNCc1cccc(OCC(O)CN2CCCCCC2)c1` (configuration not stated) it is 5.6%; for `CC(=O)Nc1cc(C(=O)NC2CCCCCC2)ccc1C` it is inactive: -4.1%. With `O=C(CCC1CCN(C(=O)CCc2cccnc2)CC1)NCC1CCCO1` (configuration not stated), the activity worked out at 11%. Consider `COc1ccc(C(=O)N2CCc3onc(-c4ccc(F)c(F)c4)c3C2)o1`, for which the activity is inactive: -1.2%. Regarding `Cc1ccccc1NC(=O)NCc1ccncc1`, the activity is inactive: -14.4%. Take `COc1ccc(-c2cc3ccc(OC(C)=O)cc3oc2=O)cc1OC`: the activity was active: 49.9%. `COc1ccccc1C(C)N(C)C(=O)c1cn(Cc2ccc(Cl)cc2)nn1` (configuration not stated): the activity was 8.2%.

On to `O=C(CSc1ccccn1)N1CCC2(CCCN(CC3CC3)C2=O)C1` (configuration not stated), for which the activity stood at 2.8%.

On to `O=C(c1ccccc1OC1CCN(Cc2ccccc2O)CC1)N1CCCC1`, for which the activity is inactive: -5.8%. For `C=CCN(CC=C)C(=O)C1CCC(=O)N(CCCN2CCOCC2)C1` (configuration not stated), the activity came out at 0.3%.

Turning to `Cc1cc(=O)c2cc(C(=O)NCc3ccco3)ccc2[nH]1`, the activity was inactive: -0.6%. Turning to `Cc1ccccc1C(=O)Nc1ccnn1C1CCN(C(=O)c2ccco2)CC1`, the activity worked out at 6.3%. Regarding `Cc1ccc(CCNC(=O)Nc2nnc(-c3ccco3)s2)s1`, the activity was found to be 4.6%. The figure for `COCCc1cc(=O)[nH]c(-c2ccc(CN(C)Cc3ccccn3)cc2)n1` is 6.6%; for `c1ccc(Cc2nn3c(-c4ccco4)nnc3s2)cc1` it is inactive: -5.1%; for `COc1ccc(S(=O)(=O)NCC2CCCN(C(=O)CN3CCCC3)C2)cc1` (configuration not stated) it is 0.5%.

As to `COc1cc(C)c(Cl)cc1S(=O)(=O)n1cccn1`, the activity was inactive: -12.9%. The figure for `C=CCNC(=O)N1CCOC(Cc2cccc(C(F)(F)F)c2)C1` (configuration not stated) is 1.5%; for `O=C(Nc1cccc(-n2cccn2)c1)C1CCCN1Cc1cnc[nH]1` (configuration not stated) it is inactive: -25.6%. The figure for `C/C(=C\c1ccco1)CN1CCC2(CCCN(CC3CC3)C2)C1` (configuration not stated) is inactive: -1.1%; for `NC(=O)CCNCc1ccccc1OCC(O)CN1CCCCC1` (configuration not stated) it is 4.1%.

`CCSc1ncc(CN2CC[C@@H](N3CCCCCC3)[C@H](O)C2)cn1`: the activity amounted to 0.9%. For the compound `O=C(c1cn(C2CCCCCC2)nn1)N1CCN(Cc2ccc3c(c2)OCO3)CC1`, the activity was inactive: -1%.
